Laboratory results: the supplement of paper PMC3334620
In all, about 33,000 sequences were measured (“E-score (-0.5 to 0.5)”: median about -0.0059, highest 2% from about 0.26 on). Some of the results follow.

The sequences below were run against T1, Cin5 (UniProt P40917) (assay: PBM E-score (8-mer binding enrichment) (E-score (-0.5 to 0.5)); higher = stronger / more preferred TF binding). Details: protein concentration: 100 nM; construct: GST-full length.
T1 sequence: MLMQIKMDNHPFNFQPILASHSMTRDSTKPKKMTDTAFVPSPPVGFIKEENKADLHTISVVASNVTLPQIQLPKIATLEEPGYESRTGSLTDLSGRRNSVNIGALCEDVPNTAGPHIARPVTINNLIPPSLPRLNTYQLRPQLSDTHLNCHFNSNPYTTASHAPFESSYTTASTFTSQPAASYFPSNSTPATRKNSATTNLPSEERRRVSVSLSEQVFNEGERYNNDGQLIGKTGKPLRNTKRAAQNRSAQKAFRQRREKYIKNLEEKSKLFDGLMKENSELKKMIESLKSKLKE
Outline: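 Masliner-normalised scans of fluorescent anti-GST signal were the basis for scoring. That signal came from GST-tagged yeast transcription factors applied at about 100-200 nM to double-stranded universal all-10-mer Agilent arrays on fresh or once-stripped slides. Each ungapped eight-base word, pooled with its reverse complement, received an E-score from the Universal PBM Analysis Suite.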

Sequence | PBM E-score
ATGCGAAA | 0.138
CTTATCTA | 0.276
AGATGCCA | 0.0194
CCTTCCAG | -0.127
GGCCCGCA | -0.0944
AATGAAGA | 0.213
CCATGACC | -0.155
AGAGCGTG | -0.0592
AGCCGCGC | 0.086
AATTACGA | 0.313
CCTTGACG | -0.152
GGTCTCCA | -0.0726
GAGTCTTA | -0.21
ATGTCATA | 0.299
CACACCAA | 0.167
GCCACCAA | 0.0137
GTTCTAGA | -0.0278
AGCTTTTG | 0.0342
TCGTCGAA | -0.161
CTGCTCCA | -0.0749
ACTCGTCG | -0.0841
TATTTTCA | 0.167
TCTGGGAA | -0.0808
AGCTACCT | -0.0535
ATTGCGAG | 0.074

Sequence | PBM E-score
AATCGACA | 0.226
CCTAGTTC | 0.0162
AAGTATAG | 0.0266
CAATGCGG | 0.0282
AGTACAAC | 0.0989
CACTAGGG | -0.0698
GGACACAC | -0.102
CGAGCGCG | 0.0115
ACTCAGGG | -0.0103
CCCACTTA | 0.209
CGCAACAG | -0.0481
CCAGATCG | -0.134
ACATAGAA | 0.244
ATTTTCAA | 0.0848
CAAACTAC | 0.0495
AGCTGCCA | -0.105
GCTCCCAC | -0.211
CGTTCCGC | 0.119
CTGGATTC | 0.0815
ACTTCCTC | -0.0174
CAGCCCTG | -0.351
AAGACAAA | 0.17
CAGCGGAC | -0.0793
ATACCTCA | 0.0518
ATTACAAC | 0.196

Sequence | PBM E-score
TAAAGGTA | -0.0752
CACTAAAG | -0.00827
CTTTGATC | -0.00568
ATTGCTCA | 0.0762
CAATCCGG | 0.125
CAGCTACC | -0.0939
ATTTGCTC | 0.0587
AGATTGTG | 0.0343
TCCCGTAA | 0.116
CGACGCAG | -0.216
AGAGAAAG | -0.00588
GCTGAAGA | 0.0402
AACAGCTG | -0.0187
AACTGCAC | 0.068
CAACTGTA | 0.0882
CCACTTCG | -0.0194
ATTGTTTC | 0.275
CCCGAGGA | -0.106
ATGTCAGG | 0.0341
CACCTAAC | -0.043
CTGGTTTA | -0.14
TCTCGACA | -0.0328
AGTACACA | 0.235
GCTTTCGA | -0.174
CAAGATTA | 0.0898

Fetched one by one from the list above, 6 records:
Sequence | PBM E-score
CGACGCAG | -0.216
ATTGTTTC | 0.275
CAACTGTA | 0.0882
CAATCCGG | 0.125
TCTCGACA | -0.0328
AGTACACA | 0.235

Later entries.

Sequence | PBM E-score
CTTGTCTC | -0.109
CCATGCTC | -0.224
CAAAAGAA | 0.191
CTCTGTGC | -0.0888
AAAGCCCC | -0.127
CAAAGCAG | -0.0181
AGGAGGAG | -0.221
CTTTGATA | 0.116
CGGTGTTC | -0.0558
ATCTTTAA | 0.0357
ACTTATAT | 0.254
ACAGGCGT | -0.23
AGGGGCGC | -0.0923
AAGGAGCC | -0.259
AAACTTTC | -0.00907
ATTAATGA | 0.29
ACGTGAGG | -0.0115
ATCAGAGG | -0.178
AAACAATC | 0.135
ATACATGG | 0.173
CAATCCCA | -0.0745
CGCTTGAA | 0.0957
GCTCACAC | -0.00642
AGGCGAAT | 0.0401
GGTACGAA | 0.0708

Given as tab-separated lines: entries from further up.
Sequence	PBM E-score
ACAGGCGT	-0.23
AGGGGCGC	-0.0923

(list continues)

Sequence | PBM E-score
GAGATGCA | 0.0744
ATGCTGGG | -0.00432
AATTTACG | 0.234
ACCAGTCG | -0.175
AAGTCGGC | -0.164
CAGAGAAA | 0.147
ATCGTGTC | 0.0401
ACGAAGTC | 0.0346
ACACTCAT | 0.111
GCGGCCGC | -0.326
CCCTAATC | 0.0683
CATGCCCA | -0.321
ACGAAAGG | 0.0313
ATAAACGA | 0.208
CAACGACG | -0.0932
AGCGTGTG | -0.00995
ACTCTAGA | 0.122
ATCTTGGA | -0.0269
CGAGACAC | -0.258
GTTGTTTA | 0.237
AGGCCAAC | -0.251
GCATGGAC | -0.0369
CTGAATCA | 0.104
CAGACCGG | -0.221
ATTGATGC | 0.181

Sequence | PBM E-score
GCATAACA | 0.203
CGATCGAG | 0.179
AGAGGCCG | -0.323
ATATAAAA | 0.154
CCGGCACA | -0.186
ACGGTTTA | -0.0471
ACTTATCT | 0.1
GCTTTTAC | -0.0399
GTGAACGA | -0.0458
CACGAGAA | -0.0477
GCGGTTAA | -0.00792
GACCTAGC | -0.13
CTCGTGAA | 0.0406
CCATCGGA | -0.0569
CGTCAGAC | -0.106
AGATTTTC | 0.0614
AACGGCGC | -0.215
GTCTTTTA | -0.113
CGTCCGAA | -0.0109
CACGGCAG | -0.0512
AACGTAAA | 0.21
ATGATGTG | 0.145
ATAGGTCC | 0.139
GCAAGTGC | -0.22
ATAGAAGG | -0.172

Sequence | PBM E-score
AGCCCCTG | -0.274
AACCCTAA | 0.00675
AGTGCCCG | -0.0819
CTGCGCTC | -0.284
ACGCGTCT | -0.0308
GACGTCAA | 0.163
ATCTTTTA | 0.0751
GCACGGGC | -0.311
AAAGCCGT | -0.198
CTGAATGA | 0.0842
CTACAGCC | -0.13
CTAGGAAC | -0.124
AAAACTGC | 0.0313
CGTGGACA | -0.0352
AACCGTTG | 0.116
CGCATGCG | -0.0499
ACGGTCGA | -0.0133
ACAGGGCC | -0.036
AATGATGC | 0.114
AGCAAAAC | 0.102
AATCAGTG | 0.133
AGTTTGGG | 0.162
